Laboratory results published in US20190105340A1, “METHODS AND COMPOSITIONS FOR TARGETING VASCULAR MIMICRY” (New York Genome Center, Inc., priority 2017, published 2019).
At least one structure is not confirmed: it was looked up by name or label, or the drawing left a doubt.

Columns and labels:
4T1-TVM-derived tumors = assay: treatment of 4T1-TVM-derived tumors, tumor volume by bioluminescence; format: in vivo, mouse; conditions: day 6 after initiation of therapy; 4T1-TVM tumors
parental 4T1 tumors = conditions: typical course of treatment; cited from earlier work

CCN(CC)CCNC(=O)c1c(C)[nH]c(/C=C2\C(=O)Nc3ccc(F)cc32)c1C [Sunitinib]
bioluminescent tumor volume normalized to pre-treatment and vehicle treated tumors (4T1-TVM-derived tumors): resistant to Sunitinib | reduction in tumor volume (parental 4T1 tumors): ~30%
